The source of these data is patent publication US4460576A (Kaken Pharmaceutical Co., Ltd., priority 1982, dated 1984).

The data set is described as follows: general procedure: solution-phase peptide synthesis; DCC; DCC/HOBt; azide method; mixed anhydride (isobutyl chloroformate); ONp activ. The note with it: coupling step.
In the case of “Boc--Asp(OBzl)--Thr--Met--Arg(Mts)--Cys(MBzl)--Met--Val--Gly--OH”, the step yield is on record as 78% of theoretical amount. As to “Z(OMe)--Thr--Met--Arg(Mts)--Cys(MBzl)--Met--Val--Gly--OH”, the step yield is 90% of theoretical amount.

Turning to “Z(OMe)--Arg(Mts)--Cys(MBzl)--Met--Val--Gly--OH”, the step yield is given as 69% of theoretical amount. Turning to “Z(OMe)--Arg(Mts)--Val--Tyr--Arg(Mts)--Pro--Cys(MBzl)--Trp--Gln--Val--OBzl”, the step yield was 56% of theoretical amount. Regarding “Boc--Asp(OBzl)--Thr--Met--Arg(Mts)--Cys(MBzl)--Met--Val--Gly--Arg(Mts)--Val--Tyr--Arg(Mts)--Pro--Cys(MBzl)--Trp--Gln--Val--OBzl”, the step yield is 59% of theoretical amount.

Consider Boc--Cys(MBzl)--Trp--Gln--Val--OBzl, for which the step yield is 83% of theoretical amount. “Z(OMe)--Arg(Mts)--Val--Tyr--Arg(Mts)--Pro--OH”: the step yield was 67% of theoretical amount.
